Some peptides are written in HELM: one residue between dots, names in brackets for other building blocks, links after the first $.

A short description of this data set: peptide made by a vendor (Fmoc solid-phase peptide synthesis; Rink amide resin; DIC/HBT (DIC/Oxyma for lactam formation)). Conditions: whole synthesis, analytical HPLC/mass spectrometry.

For the substance “PEPTIDE1{H.[XAib].Q.G.T.F.T.S.D.Y.S.K.Y.L.D.E.[XKGlcA].A.A.K.E.F.I.Q.W.L.L.Q.T.[am]}$PEPTIDE1,PEPTIDE1,16:R3-20:R3$$$V2.0”, the “final HPLC purity” value stood at 95.22%.

(Values after patent US20210290732A1 (Spitfire Pharma LLC, priority 2020, published 2021).)
